{"source": "PubChem BioAssay AID1053208 – Peter MacCallum Cancer Centre | 2014", "aim": "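Synthetic lethal interactions between gene loss and doxorubicin in osteosarcoma cells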 (primary screen)", "system": "mouse osteosarcoma cells, early-passage culture from an engineered mouse model of fibroblastic bone tumour", "reagent": "siRNA pool against mouse genes, 40 nM", "duration": "about 120 h (48 h before drug, then 72 h with drug)", "conditions": "doxorubicin 100 nM for 72 h, roughly 30-40% inhibitory dose", "read-out": "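Luminescent ATP signal taken as viability with or without 100 nM doxorubicin for 72 h; mean of two wells set against non-targeting siRNA and turned into robust z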", "reading the numbers": "viability z-score with doxorubicin: higher = more viable cells under doxorubicin; viability z-score without drug: higher = more viable cells with knock-down alone", "call rule": "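Called active if knock-down leaves viability unchanged without drug (z within -2 to 2) but lowers it with doxorubicin (z at or under -2)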", "note": "This is one part, drawn at random, of about 17,000 deposited reagents. Over the whole deposit, 788 (4.7%) are marked active. 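Calls rest on z-score classes alone; an extra cut-off of viability at most 70% of control was not applied to them.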 Further read-outs or replicates are left out here."}
{"target gene":"Usp45","PubChem SID":"SID152309103","combined z-score class":"no change with or without drug","viability z-score with doxorubicin":0.9,"viability z-score without drug":-0.17,"Call":"inactive"}
{"target gene":"Rbks","PubChem SID":"SID152336467","combined z-score class":"no change with or without drug","viability z-score with doxorubicin":1.8,"viability z-score without drug":0.67,"Call":"inactive"}
{"target gene":"Nxf7","PubChem SID":"SID152277736","combined z-score class":"no change with or without drug","viability z-score with doxorubicin":0.67,"viability z-score without drug":0.17,"Call":"inactive"}
{"target gene":"Rcc1","PubChem SID":"SID152305206","combined z-score class":"no change with or without drug","viability z-score with doxorubicin":-0.67,"viability z-score without drug":-1.52,"Call":"inactive"}
{"target gene":"Mrm1","PubChem SID":"SID152274593","combined z-score class":"high cell count without drug only","viability z-score with doxorubicin":0,"viability z-score without drug":2.02,"Call":"inactive"}
{"target gene":"Nsmaf","PubChem SID":"SID152271184","combined z-score class":"no change with or without drug","viability z-score with doxorubicin":0.9,"viability z-score without drug":0,"Call":"inactive"}
{"target gene":"Galns","PubChem SID":"SID152312052","combined z-score class":"no change with or without drug","viability z-score with doxorubicin":-1.24,"viability z-score without drug":-1.52,"Call":"inactive"}
{"target gene":"E2f3","PubChem SID":"SID152304425","combined z-score class":"no change with or without drug","viability z-score with doxorubicin":1.35,"viability z-score without drug":1.85,"Call":"inactive"}
{"target gene":"Mmgt2","PubChem SID":"SID152259920","combined z-score class":"no change with or without drug","viability z-score with doxorubicin":0.67,"viability z-score without drug":-0.17,"Call":"inactive"}

Continued; the last 4 above are carried over.
{"target gene":"Nsmaf","PubChem SID":"SID152271184","combined z-score class":"no change with or without drug","viability z-score with doxorubicin":0.9,"viability z-score without drug":0,"Call":"inactive"}
{"target gene":"Galns","PubChem SID":"SID152312052","combined z-score class":"no change with or without drug","viability z-score with doxorubicin":-1.24,"viability z-score without drug":-1.52,"Call":"inactive"}
{"target gene":"E2f3","PubChem SID":"SID152304425","combined z-score class":"no change with or without drug","viability z-score with doxorubicin":1.35,"viability z-score without drug":1.85,"Call":"inactive"}
{"target gene":"Mmgt2","PubChem SID":"SID152259920","combined z-score class":"no change with or without drug","viability z-score with doxorubicin":0.67,"viability z-score without drug":-0.17,"Call":"inactive"}
{"target gene":"Bcap31","PubChem SID":"SID152342188","combined z-score class":"low cell count without drug only","viability z-score with doxorubicin":-1.12,"viability z-score without drug":-2.87,"Call":"inactive"}
{"target gene":"Scrt1","PubChem SID":"SID152335626","combined z-score class":"high cell count without drug only","viability z-score with doxorubicin":0.67,"viability z-score without drug":2.02,"Call":"inactive"}
{"target gene":"Zmym5","PubChem SID":"SID152279645","combined z-score class":"no change with or without drug","viability z-score with doxorubicin":0.45,"viability z-score without drug":1.35,"Call":"inactive"}
{"target gene":"Has1","PubChem SID":"SID152265918","combined z-score class":"no change with or without drug","viability z-score with doxorubicin":0.22,"viability z-score without drug":0.34,"Call":"inactive"}
{"target gene":"Rps27l","PubChem SID":"SID152292738","combined z-score class":"no change with or without drug","viability z-score with doxorubicin":-0.22,"viability z-score without drug":-0.17,"Call":"inactive"}
{"target gene":"Ncor1","PubChem SID":"SID152321925","combined z-score class":"no change with or without drug","viability z-score with doxorubicin":0.22,"viability z-score without drug":0.34,"Call":"inactive"}
{"target gene":"Rtn4rl1","PubChem SID":"SID152277046","combined z-score class":"no change with or without drug","viability z-score with doxorubicin":-0.45,"viability z-score without drug":-0.17,"Call":"inactive"}
{"target gene":"Meox1","PubChem SID":"SID152288986","combined z-score class":"no change with or without drug","viability z-score with doxorubicin":-0.22,"viability z-score without drug":1.18,"Call":"inactive"}
{"target gene":"Pigk","PubChem SID":"SID152315617","combined z-score class":"high cell count with and without drug","viability z-score with doxorubicin":2.02,"viability z-score without drug":2.53,"Call":"inactive"}
{"target gene":"Rgs2","PubChem SID":"SID152285825","combined z-score class":"no change with or without drug","viability z-score with doxorubicin":0.45,"viability z-score without drug":-1.52,"Call":"inactive"}
{"target gene":"Zfp748","PubChem SID":"SID152305923","combined z-score class":"low cell count without drug only","viability z-score with doxorubicin":-0.22,"viability z-score without drug":-3.54,"Call":"inactive"}
{"target gene":"Kdm4b","PubChem SID":"SID152285738","combined z-score class":"no change with or without drug","viability z-score with doxorubicin":0.45,"viability z-score without drug":0,"Call":"inactive"}
{"target gene":"Dap3","PubChem SID":"SID152283062","combined z-score class":"no change with or without drug","viability z-score with doxorubicin":0,"viability z-score without drug":-1.01,"Call":"inactive"}
{"target gene":"Trpc5","PubChem SID":"SID152292174","combined z-score class":"no change with or without drug","viability z-score with doxorubicin":0,"viability z-score without drug":0.84,"Call":"inactive"}
{"target gene":"Vmn2r10","PubChem SID":"SID152281658","combined z-score class":"low cell count with doxorubicin only","viability z-score with doxorubicin":-2.59,"viability z-score without drug":-1.01,"Call":"active"}
{"target gene":"Pstk","PubChem SID":"SID152321239","combined z-score class":"no change with or without drug","viability z-score with doxorubicin":1.12,"viability z-score without drug":1.52,"Call":"inactive"}
{"target gene":"Pou2f1","PubChem SID":"SID152329570","combined z-score class":"high cell count without drug only","viability z-score with doxorubicin":0.9,"viability z-score without drug":2.19,"Call":"inactive"}
{"target gene":"Sh3kbp1","PubChem SID":"SID152296003","combined z-score class":"no change with or without drug","viability z-score with doxorubicin":0.22,"viability z-score without drug":-0.51,"Call":"inactive"}
{"target gene":"Rptor","PubChem SID":"SID152317350","combined z-score class":"no change with or without drug","viability z-score with doxorubicin":-0.67,"viability z-score without drug":-0.84,"Call":"inactive"}
